## Screening data

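Plate-reader measure of the Venus reporter marking one vaccinia stage in infected cells (the cell line is not named here); read time unknown. The test concentration is not given here. Percent change in Venus reporter signal; lower (more negative) values mean stronger inhibition of that viral stage.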

Values are in %. How 0% and 100% were set is not given here. Common to all entries: measured here: Venus reporter, other viral stage. This is a side read-out of the assay, for part of the compounds, not drawn at random.

For CC(C)NC(=O)N(C)C[C@@H]1Oc2c(NC(=O)Nc3ccc(C(F)(F)F)cc3)cccc2C(=O)N([C@@H](C)CO)C[C@@H]1C the result was activity change (Venus) -29.73%. Result for COc1ccc(CN(C)C[C@H]2OCCCC[C@H](C)Oc3ccc(NS(=O)(=O)c4ccc(C)cc4)cc3C(=O)N([C@H](C)CO)C[C@H]2C)cc1 was activity change (Venus) -57.33%. With C[C@@H]1CN([C@H](C)CO)C(=O)c2cc(C#Cc3ccccc3F)cnc2O[C@H]1CN(C)C(=O)c1ccc2c(c1)OCO2 the assay gave activity change (Venus) -39.27%. For C[C@@H]1CN([C@@H](C)CO)S(=O)(=O)c2ccc(C#CCN(C)C)cc2O[C@H]1CN(C)Cc1ccc(F)cc1 the result was activity change (Venus) -43.78%.

Result for COc1cccc(S(=O)(=O)N(C)C[C@H]2Oc3ncc(C#CCC(C)C)cc3C(=O)N([C@@H](C)CO)C[C@@H]2C)c1 was activity change (Venus) -34.88%. With C[C@H]1CN([C@@H](C)CO)S(=O)(=O)c2ccc(C#Cc3ccccc3F)cc2O[C@@H]1CN(C)C the assay gave activity change (Venus) -74.65%. C[C@@H]1CN([C@@H](C)CO)C(=O)c2cccc(NC(=O)Nc3ccc(F)cc3)c2O[C@H]1CN(C)Cc1ccc(Cl)c(Cl)c1 gave activity change (Venus) -31.27%. With Cn1cnc(S(=O)(=O)N2CC[C@@H]3[C@H]2c2cc(C#Cc4ccccc4)ccc2N[C@@H]3CO)c1 the assay gave activity change (Venus) -26.6%.

Result for CCCNC(=O)N1CC(=O)N2[C@H](C1)[C@H](c1ccc(C#Cc3cccc(OC)c3)cc1)[C@@H]2CO was activity change (Venus) -45.03%. O=C(C[C@H]1CC[C@@H]2[C@H](COC[C@H](O)CN2Cc2ccc(Oc3ccccc3)cc2)O1)N1CCc2ccccc2C1 read activity change (Venus) -35.02%. Result for CC(C)CC#Cc1ccc2c(c1)O[C@@H](CN(C)C(=O)NC1CCCC1)[C@@H](C)CN([C@H](C)CO)S2(=O)=O was activity change (Venus) -41.74%. Result for C[C@@H]1CN([C@@H](C)CO)S(=O)(=O)c2ccc(/C=C/c3ccccc3)cc2O[C@H]1CN(C)C(=O)NC1CCCC1 was activity change (Venus) -62.02%.

Cc1noc(C)c1S(=O)(=O)Nc1ccc2c(c1)C(=O)N([C@@H](C)CO)C[C@H](C)[C@@H](CN(C)S(=O)(=O)c1ccccc1)OCCCC[C@@H](C)O2 gave activity change (Venus) -21.21%. COc1cccc(NC(=O)N2CC(=O)N3[C@H](CO)[C@H](c4ccc(C#CC5CCCC5)cc4)[C@H]3C2)c1 gave activity change (Venus) -33.49%. For C[C@H]1CN([C@@H](C)CO)S(=O)(=O)c2ccc(C3=CCCC3)cc2O[C@@H]1CN(C)Cc1ccccc1 the result was activity change (Venus) -61.86%. For COCC#Cc1ccc2c(c1)O[C@@H](CN(C)Cc1ccccc1F)[C@H](C)CN([C@@H](C)CO)S2(=O)=O the result was activity change (Venus) -31.78%.

COc1ccc(NC(=O)Nc2ccc3c(c2)C(=O)N([C@H](C)CO)C[C@@H](C)[C@@H](CN(C)Cc2ccc(-c4ccccc4)cc2)O3)cc1 gave activity change (Venus) -31.94%. For C[C@@H]1CCCCO[C@H](CN(C)Cc2ccc(Cl)c(Cl)c2)[C@@H](C)CN([C@@H](C)CO)C(=O)c2cc(NS(=O)(=O)c3ccc(F)cc3)ccc2O1 the result was activity change (Venus) -43.9%. COc1ccc(S(=O)(=O)N(C)C[C@H]2Oc3cc(C#CC4CC4)ccc3S(=O)(=O)N([C@H](C)CO)C[C@H]2C)cc1 read activity change (Venus) -61.11%. C/C=C/c1ccc([C@@H]2[C@H](CO)N3CCCCN(S(=O)(=O)c4cccs4)C[C@@H]23)cc1 read activity change (Venus) -59.36%.

Cc1ccc(S(=O)(=O)Nc2ccc3c(c2)C(=O)N([C@@H](C)CO)C[C@H](C)[C@@H](CN(C)S(=O)(=O)c2cccs2)OCCCC[C@H](C)O3)cc1 gave activity change (Venus) -32.49%. C[C@@H]1CN([C@H](C)CO)S(=O)(=O)c2ccc(C#Cc3ccccc3F)cc2O[C@H]1CN(C)C(=O)Cc1ccccc1 read activity change (Venus) -44.58%. With COCC#Cc1ccc2c(c1)O[C@H](CN(C)Cc1ccccc1F)[C@@H](C)CN([C@@H](C)CO)S2(=O)=O the assay gave activity change (Venus) -30.33%. Result for Cc1ccc(S(=O)(=O)N(C)C[C@@H]2OCCCC[C@H](C)Oc3ccc(NS(=O)(=O)c4c(C)noc4C)cc3C(=O)N([C@@H](C)CO)C[C@@H]2C)cc1 was activity change (Venus) -34.71%.

With Cc1ccccc1S(=O)(=O)N1CC[C@@H]2[C@@H](CO)N(C)c3ccc(-c4cccc(C#N)c4)cc3[C@@H]21 the assay gave activity change (Venus) -23.56%. With COc1ccc(S(=O)(=O)N2CCCCN3[C@H](C2)[C@H](c2ccc(C#CC(C)C)cc2)[C@@H]3CO)cc1 the assay gave activity change (Venus) -62.87%.

The last 3 entries again:

structure,activity change (Venus) (%)
Cc1ccc(S(=O)(=O)N(C)C[C@@H]2OCCCC[C@H](C)Oc3ccc(NS(=O)(=O)c4c(C)noc4C)cc3C(=O)N([C@@H](C)CO)C[C@@H]2C)cc1,-34.71
Cc1ccccc1S(=O)(=O)N1CC[C@@H]2[C@@H](CO)N(C)c3ccc(-c4cccc(C#N)c4)cc3[C@@H]21,-23.56
COc1ccc(S(=O)(=O)N2CCCCN3[C@H](C2)[C@H](c2ccc(C#CC(C)C)cc2)[C@@H]3CO)cc1,-62.87

From PubChem BioAssay record AID1053133 (Broad Institute, 2014).